# According to patent US8067600B2, “Histone deacetylase inhibitors and methods of use thereof” (Georgetown University, priority 2003, dated 2011):
# Experiment: Cytotoxicity in SQ-20B cells (colony formation)
# Settings: human, SQ-20B squamous carcinoma cells
smiles,measurement,value
"O=C(CCCCCCC(=O)Nc1ccccc1)NO [SAHA, suberoylanilide hydroxamic acid, reference compound]",IC50 at 24 h,3000 nM
